Data: patent US5747452A, “Method of modulating tumor cell migration using fibronectin type III peptides” (La Jolla Cancer Research Foundation, priority 1995, dated 1998)
Where two headings read alike, the source gives them in different places. At least one peptide structure holds a part that was inferred or is arguable (an end, a ring closure or a residue). For some assays here: At least one read-out could not be matched to a standard name with certainty. No end group written: not given here.

Experiments:
fibronectin [1] = test: Protein-protein binding assay: 125I-fibronectin to coated fibronectin; parameters: species or system human; settings: for Kd: Scatchard analysis, program LIGAND; for IC50 of inhibition of fibronectin self-association: 5 μg/ml fibronectin coat, 2 hours at 37° C.
fibronectin [2] = test: Protein-protein binding assay: 125I-14 kDa fragment to coated fibronectin; parameters: species or system human
plasma fibronectin = test: Affinity chromatography of human plasma on polypeptide-Sepharose columns; format: binding
IMR-90 cells [3] = test: Endogenous fibronectin matrix assembly (anti-fibronectin immunofluorescence); format: cell-based, human; settings: subconfluent cells, 48 hours; 1 mg/ml 70 kDa fragment or 500 μM polypeptide
[4] = Aggregation of polypeptide in solution (high speed centrifugation); format: physicochemical
[5] = tested on: fibronectin matrix assembly by IMR-90 cells
IMR-90 cells [6] = test: Matrix assembly assay, 1 hour: binding of 125I-fibronectin to cell surfaces; format: cell-based, human; settings: 1 hour matrix assembly assay
IMR-90 cells [7] = test: Cell attachment to polypeptide-coated wells incubated with fibronectin; format: cell-based, human
[8] = constant unlabeled 70 kDa (0.03 μM), P1 from 0-500 μM

## fibronectin
Fibronectin [1]; read-out: KD of the high affinity site, fibronectin-fibronectin binding
  Kd: 8 nM
Fibronectin [1]; read-out: KD of the low affinity site, fibronectin-fibronectin binding
  Kd: 800 nM

## LISIQQYGHQEVTRFDFTTTSTSTPVTSNTV [Polypeptide P3, LISIQQYGHQEVTRFDFTTTSTSTPVTSNTV]
Fibronectin [2]
  potency relative to polypeptide P1 in inhibiting 14 kDa-fibronectin binding: approximately 100 fold less potent
Fibronectin [1]
  IC50 of inhibition of fibronectin self-association: 200000 to 300000 nM

## VTSNTVTGETTPFSPLVATSESVTEITASSFVVS [Polypeptide P4, VTSNTVTGETTPFSPLVATSESVTEITASSFVVS]
Fibronectin [2]
  effect on 14 kDa-fibronectin association: did not significantly inhibit
Fibronectin [2]; concentrations above 100 μM
  effect on 14 kDa-fibronectin association at high concentration: stimulated this association

## CC[C@H](C)[C@H](NC(=O)[C@H](Cc1ccc(O)cc1)NC(=O)[C@H](CCCCN)NC(=O)[C@H](CO)NC(=O)[C@@H](NC(=O)[C@H](Cc1c[nH]cn1)NC(=O)[C@H](CO)NC(=O)[C@@H]1CCCN1C(=O)[C@H](CCC(N)=O)NC(=O)[C@@H]1CCCN1C(=O)[C@H](C)NC(=O)[C@@H](N)CC(N)=O)[C@@H](C)CC)C(=O)N[C@@H](CC(C)C)C(=O)N[C@@H](CCCNC(=N)N)C(=O)N[C@@H](Cc1c[nH]c2ccccc12)C(=O)N[C@@H](CCCNC(=N)N)C(=O)N1CCC[C@H]1C(=O)N[C@@H](CCCCN)C(=O)N[C@@H](CC(N)=O)C(=O)N[C@@H](CO)C(=O)N[C@H](C(=O)NCC(=O)N[C@@H](CCCNC(=N)N)C(=O)N[C@@H](Cc1c[nH]c2ccccc12)C(=O)N[C@@H](CCCCN)C(=O)N[C@@H](CCC(=O)O)C(=O)N[C@@H](C)C(=O)N[C@H](C(=O)N[C@H](C(=O)N1CCC[C@H]1C(=O)NCC(=O)O)[C@@H](C)CC)[C@@H](C)O)C(C)C [Polypeptide P1, NAPQPSHISKYILRWRPKNSVGRWKEATIPG]
Plasma fibronectin; human plasma, polypeptide coupled to Sepharose
  capacity of the column for fibronectin: comparable to that of gelatin-Sepharose
Plasma fibronectin; not eluted by NaCl, removed by 8M urea
  binding of plasma fibronectin to the polypeptide column: fibronectin binds efficiently
Fibronectin [2]; 5 μg/ml fibronectin coat, 2 hours at 37° C., read-out: IC50 of inhibition of binding of the 14 kDa fragment to fibronectin
  IC50: 1000 nM
Fibronectin [1]
  IC50 of inhibition of fibronectin self-association: approximately 1 μM
Fibronectin [1]; 24 hours at 37° C.
  concentration dependence of effect on fibronectin-fibronectin binding (biphasic): inhibit the binding at low concentrations, yet enhance binding at higher concentrations
Fibronectin [1]; high concentrations (above 100 μM)
  effect on fibronectin-fibronectin binding at high concentrations: enhanced the binding of fibronectin to the wells
IMR-90 cells [3]
  effect on endogenous fibronectin matrix assembly: disrupted endogenous fibronectin matrix assembly
[4]
  concentration above which polypeptide could be pelleted by centrifugation: above 100 μM
[5]; 24 hour assay, total 125I-fibronectin, polypeptide concentration of 250-500 μM
  maximal inhibition of the incorporation of fibronectin into the matrix: approximately 80%
[5]; [8]
  combined effect with the 70 kDa fragment on matrix assembly: additive, not synergistic
  concentration at which maximal inhibition was obtained in the presence of the 70 kDa fragment: 250 to 500 µM
IMR-90 cells [6]
  inhibition of binding of 125I-fibronectin to cells: 40-50%
IMR-90 cells [7]; constant concentration (1 mm) of polypeptide coated
  cell adhesion versus fibronectin concentration: supported a higher degree of cell adhesion than did polypeptide α4
IMR-90 cells [7]; wells then incubated with 250 μg/ml of fibronectin
  cell adhesion versus polypeptide coating concentration: supported cell adhesion in a dose dependent manner
